# From the supplement of paper PMC3682954
# Counter-ions that a name gives are not always drawn. ± gives the standard deviation of the averaged measurements. This is one part of the list. Repeats are few or missing, and single values can be far off.
# Test system: RAW 264.7
# Assay: HMGB1-induced TNF-alpha production relative to HMGB1-stimulated control; higher = more TNF-alpha secretion (less inhibition)
# Details: stimulus: HMGB1 5 ug/ml, 18 h
# [1] = compound concentration: 1 ug/ml
Structure (SMILES),HMGB1-induced TNF-alpha production (compound concentration: 3 uM),HMGB1-induced TNF-alpha production [1]
CC1(C)O[C@@H]2C[C@H]3[C@@H]4C[C@H](F)C5=CC(=O)C=C[C@]5(C)[C@H]4[C@@H](O)C[C@]3(C)[C@]2(C(=O)CO)O1 [Flunisolide],41.8%,–
CC1(C)O[C@@H]2C[C@H]3[C@@H]4C[C@H](F)C5=CC(=O)C=C[C@]5(C)[C@H]4[C@@H](O)C[C@]3(C)[C@]2(C(=O)CO)O1,36%,–
CCCN(CC1CC1)c1nc(C)nc(Nc2c(Cl)cc(Cl)cc2Cl)c1Cl,80.2%,–
Nc1ncnc2c1ncn2C1CCCC1 [9-cyclopentyladenine],80.1%,–
C[C@]12CCC(=O)C=C1CC[C@@H]1[C@@H]2[C@@H](O)C[C@@]2(C)[C@H]1CC[C@]2(O)C(=O)COP(=O)(O)O,58.9%,–
Nc1ccn([C@@H]2O[C@H](COP(=O)(O)O)[C@@H](O)[C@H]2O)c(=O)n1 [Cytidine 5'-monophosphate],–,80.3%
CC(=O)OCC(=O)[C@@]1(O)CC[C@H]2[C@@H]3CCC4=CC(=O)C=C[C@]4(C)[C@H]3[C@@H](O)C[C@@]21C [prednisolone 21-acetate],–,35.9%
CC(=O)OCC(=O)[C@@]1(O)CC[C@H]2[C@@H]3CCC4=CC(=O)C=C[C@]4(C)[C@H]3[C@@H](O)C[C@@]21C,33.5%,–
O=C1NC(c2cccc([N+](=O)[O-])c2)=CCN1c1ccccc1O [Icilin],90.6%,–
COc1cc(N)c(Cl)cc1C(=O)OCCN1CCCCC1,100%,–
Cc1cc(=O)oc2cc(OC3OC(C(=O)O)C(O)C(O)C3O)ccc12 [4-Methylumbelliferyl-beta-D-glucuronide trihydrate],–,67.1%
Cc1c(Nc2ncccc2C(=O)O)cccc1C(F)(F)F,89.2%,–
Cc1c(Nc2ncccc2C(=O)O)cccc1C(F)(F)F [Flunixin meglumine],101%,–
CC[C@H](c1ccc(O)cc1)[C@@H](CC)c1ccc(O)cc1 [Hexestrol],92.8 ± 22%,–
CC[C@H](c1ccc(O)cc1)[C@@H](CC)c1ccc(O)cc1,64.9%,–
CCCCCC(O)CCCC(=O)O (stereo not drawn) [5-hydroxydecanoic acid sodium],89.4%,–
C=CCNc1ncnc2c1ncn2[C@@H]1O[C@H](CO)[C@@H](O)[C@H]1O [N-Allyladenosine],–,85.7%
COc1cc2oc(-c3ccccc3)cc(=O)c2cc1O,–,60.9%
CC(=O)Oc1ccc(/C=C/C(=O)CC2OC(Oc3cc(OC(C)=O)c4c(c3)O[C@@H](c3ccc(OC(C)=O)cc3)CC4=O)C(OC(C)=O)C(OC(C)=O)C2OC(C)=O)cc1 (stereo partly drawn),–,78.2%
CCN1CCCC1CNC(=O)c1cc(S(N)(=O)=O)ccc1OC (racemic) [(±)-Sulpiride],114%,–
O=c1c(O)c(-c2ccccc2)oc2cc(O)cc(O)c12 [Galangin],–,52.2%
O=C(O)c1cc(=O)c2c(OCC(O)COc3cccc4oc(C(=O)O)cc(=O)c34)cccc2o1,70.2%,–
O=C(O)c1cc(=O)c2c(OCC(O)COc3cccc4oc(C(=O)O)cc(=O)c34)cccc2o1 [Disodium Cromoglycate],103%,–
O=C(O)c1cc(=O)c2c(OCC(O)COc3cccc4oc(C(=O)O)cc(=O)c34)cccc2o1 [Cromolyn disodium salt],116%,–
C=CCc1ccccc1OCC(O)CNC(C)C (stereo not drawn) [Alprenolol],98.7%,–
C=CCc1ccccc1OCC(O)CNC(C)C (stereo not drawn),97.3%,–
C=CCc1ccccc1OCC(O)CNC(C)C (stereo not drawn) [Alprenolol hydrochloride],91.5 ± 19%,–

Structure (SMILES),HMGB1-induced TNF-alpha production (compound concentration: 3 uM),HMGB1-induced TNF-alpha production [1]
NC[C@H]1CC[C@H](C(=O)O)CC1,77.4%,–
NC[C@H]1CC[C@H](C(=O)O)CC1 [Tranexamic acid],79.6%,–
Oc1c(Cl)cc(Cl)cc1Sc1cc(Cl)cc(Cl)c1O,84.1%,–
CCCCOc1ccc(CC(=O)NO)cc1,84.4%,–
CCCCOc1ccc(CC(=O)NO)cc1 [Bufexamac],81.7%,–
CC(=O)OC(C)C[N+](C)(C)C (stereo not drawn),98.8%,–
CC(=O)OC(C)C[N+](C)(C)C (stereo not drawn) [Acetyl-beta-methylcholine chloride],86.3%,–
CC(=O)OC(C)C[N+](C)(C)C (stereo not drawn) [Methacholine chloride],93.6%,–
CCCCC[C@H](CC(=O)NO)C(=O)N[C@H](C(=O)N1CCC[C@H]1CO)C(C)C [Actinonin],92.2%,–
Cc1nc(N=Nc2ccc(S(=O)(=O)O)cc2S(=O)(=O)O)c(COP(=O)(O)O)c(C=O)c1O,104%,–
Cc1ccc(O)c([C@H](CCN(C(C)C)C(C)C)c2ccccc2)c1,112%,–
CCN1/C(=C/C(C)=O)Sc2ccc(OC)cc21,114%,–
"CN(C)C(=O)N=NC(=O)N(C)C [N,N,N',N'-Tetramethylazodicarboxamide]",98.7%,–
C/N=C(/NC#N)NCCSCc1csc(NC(=N)N)n1 [Tiotidine],135%,–
Nc1nc(=O)c2c([nH]1)NCC(CNc1ccc(C(=O)N[C@@H](CCC(=O)O)C(=O)O)cc1)N2C=O (stereo partly drawn),109%,–
O=c1cc(-c2cccc(O)c2)oc2c(O)c(O)ccc12,–,74.7%
CCOc1ccc2cc(-c3ccccc3Cl)c(=O)oc2c1 [3(2'-Chlorophenyl)-7-ethoxycoumarin],–,72.5%
CCSc1ccc2c(c1)N(CCCN1CCN(C)CC1)c1ccccc1S2 [Thiethylperazine malate],109%,–
Cc1c(O)cccc1C(=O)N[C@@H](CSc1ccccc1)[C@H](O)CN1C[C@H]2CCCC[C@H]2C[C@H]1C(=O)NC(C)(C)C,98.6%,–
Cc1c(O)cccc1C(=O)N[C@@H](CSc1ccccc1)[C@H](O)CN1C[C@H]2CCCC[C@H]2C[C@H]1C(=O)NC(C)(C)C [Nelfinavir mesylate],74.2%,–
CC(C)CCC[C@@H](C)[C@H]1CC[C@H]2[C@@H]3CC=C4C[C@@H](O)CC[C@]4(C)[C@H]3CC[C@]12C,95.7%,–
Nc1ccn([C@@H]2O[C@H](CO)[C@@H](O)[C@H]2O)c(=O)n1 [Cytidine],–,81.8%
CN(C)CCC(c1ccccc1)c1ccccn1 (stereo not drawn),93.8%,–
CN(C)CCC(c1ccccc1)c1ccccn1 (stereo not drawn) [Pheniramine maleate],89.8 ± 30%,–
COc1ccc(/C=C2\COc3ccc(C)cc3C2=O)cc1O,92.6%,–
"COC1=C(OC)C(=O)c2ccccc2C1=O [2,3-Dimethoxy-1,4-naphthoquinone]",116%,–

# Quoted from the listing.
# Value of COC1=C(OC)C(=O)c2ccccc2C1=O [2,3-Dimethoxy-1,4-naphthoquinone] under HMGB1-induced TNF-alpha production (compound concentration: 3 uM): 116%
# Value of CC(=O)OC(C)C[N+](C)(C)C (stereo not drawn) under HMGB1-induced TNF-alpha production (compound concentration: 3 uM): 98.8%
# Value of CC(=O)OC(C)C[N+](C)(C)C (stereo not drawn) [Methacholine chloride] under HMGB1-induced TNF-alpha production (compound concentration: 3 uM): 93.6%
